Measured values reported in article PMC5799368.
These are yes or no findings as the source states them, for the method shown. For some assays here: Binding calls can cover weak binding; strength is not graded here. For some assays here: Sequences can lack the tags named with a protein. For some assays here: Binding seen in cells or lysates may run through a third protein.

By UniProt entry, the sequences of proteins in these tests, tags left out. Where a name states a change or a piece, a line headed by the entry shows the natural chain unless it says otherwise.
UniProt P10275: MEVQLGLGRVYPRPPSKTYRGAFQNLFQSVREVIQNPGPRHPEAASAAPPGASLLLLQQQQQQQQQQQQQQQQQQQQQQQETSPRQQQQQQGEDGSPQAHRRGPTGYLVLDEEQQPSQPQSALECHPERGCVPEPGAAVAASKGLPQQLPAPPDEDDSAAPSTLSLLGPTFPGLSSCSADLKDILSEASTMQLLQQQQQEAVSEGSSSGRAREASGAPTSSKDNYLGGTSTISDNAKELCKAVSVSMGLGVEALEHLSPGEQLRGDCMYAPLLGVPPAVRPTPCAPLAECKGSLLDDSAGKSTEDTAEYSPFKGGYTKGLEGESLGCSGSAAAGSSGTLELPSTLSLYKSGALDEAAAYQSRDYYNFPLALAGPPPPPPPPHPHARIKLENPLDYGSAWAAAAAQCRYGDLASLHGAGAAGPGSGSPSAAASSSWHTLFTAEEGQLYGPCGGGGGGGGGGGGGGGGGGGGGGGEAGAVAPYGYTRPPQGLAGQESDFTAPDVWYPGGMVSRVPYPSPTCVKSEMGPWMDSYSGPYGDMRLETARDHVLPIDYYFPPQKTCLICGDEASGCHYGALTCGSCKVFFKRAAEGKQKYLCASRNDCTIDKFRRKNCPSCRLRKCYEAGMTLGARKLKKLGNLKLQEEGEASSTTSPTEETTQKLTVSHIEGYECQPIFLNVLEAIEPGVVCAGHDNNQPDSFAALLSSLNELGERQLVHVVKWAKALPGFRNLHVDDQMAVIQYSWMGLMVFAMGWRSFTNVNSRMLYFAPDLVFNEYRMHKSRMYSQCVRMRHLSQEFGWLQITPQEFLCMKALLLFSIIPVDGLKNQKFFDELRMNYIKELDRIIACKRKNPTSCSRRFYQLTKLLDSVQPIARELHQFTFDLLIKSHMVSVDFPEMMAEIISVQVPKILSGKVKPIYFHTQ
UniProt Q00987: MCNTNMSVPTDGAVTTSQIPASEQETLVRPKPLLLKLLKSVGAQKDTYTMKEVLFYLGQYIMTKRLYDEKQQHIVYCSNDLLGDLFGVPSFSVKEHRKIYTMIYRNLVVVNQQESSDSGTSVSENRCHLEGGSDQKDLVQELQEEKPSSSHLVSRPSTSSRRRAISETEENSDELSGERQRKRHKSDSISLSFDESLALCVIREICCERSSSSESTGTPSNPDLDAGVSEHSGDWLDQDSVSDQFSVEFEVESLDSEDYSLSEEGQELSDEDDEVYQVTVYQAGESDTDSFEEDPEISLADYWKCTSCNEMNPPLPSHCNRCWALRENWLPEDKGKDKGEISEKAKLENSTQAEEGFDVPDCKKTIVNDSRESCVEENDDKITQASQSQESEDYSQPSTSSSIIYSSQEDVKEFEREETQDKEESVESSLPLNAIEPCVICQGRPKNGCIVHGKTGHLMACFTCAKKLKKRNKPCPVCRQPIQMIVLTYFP
UniProt Q99496: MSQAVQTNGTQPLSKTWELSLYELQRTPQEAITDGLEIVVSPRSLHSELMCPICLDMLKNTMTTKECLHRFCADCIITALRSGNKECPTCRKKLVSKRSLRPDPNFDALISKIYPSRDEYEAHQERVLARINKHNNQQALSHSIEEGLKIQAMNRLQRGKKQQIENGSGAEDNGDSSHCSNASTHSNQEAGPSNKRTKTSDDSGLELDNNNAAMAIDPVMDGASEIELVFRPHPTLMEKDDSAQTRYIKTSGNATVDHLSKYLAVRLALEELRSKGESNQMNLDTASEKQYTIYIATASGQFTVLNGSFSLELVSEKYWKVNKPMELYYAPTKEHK

How the values were obtained:
[1] = target: Halo-NTD (AR N-terminal domain) (UniProt P10275); experiment: pull-down; lysates of 293T cells transfected with Halo-AR constructs or empty vector; halo-tag magnetic beads, immunoblot
[2] = target: BMI1 (B lymphoma Mo-MLV insertion region 1) (human (endogenous in C4-2, 22Rv1, LuCaP PDX tissue, 293T)) (UniProt P35226); experiment: co-IP; lysates of 293T cells transfected with Halo-AR constructs or empty vector; IP with anti-BMI1 antibody, immunoblot
[3] = target: GST-MDM2 fusion protein (UniProt Q00987); experiment: pull-down; in vitro competitive binding: purified AR-NTD and GST-MDM2 incubated with purified His-BMI1 (0, 2 or 10 µg) at 4 °C for 12 h, GST pull-down, immunoblot; both purified
[4] = target: T1, GST fusion protein containing full-length mBMI1 (mouse) (UniProt P25916); experiment: pull-down; His-AR-NTD incubated at 4 °C for 12 h with GST fusion proteins, GST pull-down, immunoblot with anti-GST and anti-AR; both purified
T1 sequence: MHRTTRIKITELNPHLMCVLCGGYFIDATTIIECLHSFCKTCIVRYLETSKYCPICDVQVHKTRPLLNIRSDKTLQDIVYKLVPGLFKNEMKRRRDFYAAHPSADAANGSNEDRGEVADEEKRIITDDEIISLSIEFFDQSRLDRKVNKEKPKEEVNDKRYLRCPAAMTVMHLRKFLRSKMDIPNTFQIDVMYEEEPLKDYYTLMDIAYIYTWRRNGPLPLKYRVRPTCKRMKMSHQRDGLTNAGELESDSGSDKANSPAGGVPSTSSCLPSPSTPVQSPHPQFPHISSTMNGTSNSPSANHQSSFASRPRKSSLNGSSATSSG

[5] = target: GST-RING1B (UniProt Q99496); experiment: as above
[6] = target: GST-MDM2 fusion protein (UniProt Q00987); experiment: as above
[7] = target: GST-MDM2 fusion protein (UniProt Q00987); experiment: pull-down; competition: purified AR-NTD and MDM2 incubated with purified BMI1∆RING (0 or 2 µg) at 4 °C for 12 h, MDM2 pull-down, immunoblot; both purified
[8] = target: Purified 6×His AR-NTD protein (UniProt P10275); experiment: pull-down; in vitro competitive binding: purified AR-NTD and GST-MDM2 incubated with purified His-BMI1 (0, 2 or 10 µg) at 4 °C for 12 h, GST pull-down, immunoblot; both purified

BMI1 (B lymphoma Mo-MLV insertion region 1) (from UniProt P35226 1-326)
binding [1]: binds

Halo-NTD (AR N-terminal domain) (from UniProt P10275) (domain or fragment)
binding [2]: binds

Purified 6×His AR-NTD protein (from UniProt P10275) (domain or fragment)
binding [3]: binds | binding [4]: binds | binding [5]: no binding | binding [6]: binds | binding [7]: binds

Purified His-BMI1 (from UniProt P35226 1-326)
binding [8]: binds
